At least one structure is not confirmed: it was looked up by name or label, or the drawing left a doubt.
Test system: B cell surface CLIP
Assay: B cell surface CLIP after 2-Deoxyglucose and dichloroacetate (FIG. 4)
Type: cell-based

O=C(O)C(Cl)Cl [dichloroacetate]
B cell surface CLIP: affects B cell surface CLIP

From patent publication US20100034839A1, “METHODS FOR TREATING VIRAL DISORDERS” (priority 2008, published 2010)
